Measurements as given in PubChem BioAssay AID624291 (National Center for Advancing Translational Sciences (NCATS), 2012).
Screen size: about 350,000 compounds; about 220 (0.063%) were called active. The inconclusive results got no clear call from the source; some entries with a clear call stand among them for comparison. Calls come from the whole dose curve; as a rule, active = well fitted activation curve with a large enough effect; inconclusive = small, poorly fitted or top-dose-only effect; inactive = no such curve, though single readings can be large or run the other way. A potency beside an inconclusive call is a rough fit, not a confirmed value.

Test: qHTS for Activators of Integrin-Mediated Alleviation for Muscular Dystrophy; note: nearly all actives have a fitted effect of over 60% in size;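 for activation: 100% = response of the positive control SU9516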
Details: alpha7betagal myoblasts, beta-gal FDG fluorescence, 48 h; activation: at 38.3 µM (top of the series)
How it was run: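 alpha7betagal+/- myoblasts (passage 13, 250/well) treated 48 h at 37C with compounds at 1:260 dilution of DMSO stock. Lysed, then beta-galactosidase activity read as FDG fluorescence (ex 480/em 540) after 30 min, with pre-read for autofluorescence.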
Potency is the fitted concentration of half-maximal effect.

Potency, inconclusive:
CN(CC(=O)Nc1ccc(N2CCOCC2)cc1)C(=O)c1cc2c(s1)CCCC2 2.51 µM [activator, partial curve, poor fit]
COc1ccc(-n2nc(C(=O)NCC(=O)NCCCN3CCN(C)CC3)c3ccccc3c2=O)cc1 2.24 µM [activator, partial curve, poor fit]
Cc1c(NS(=O)(=O)c2cccc(C(=O)OCC(=O)N(C)C3CCCCC3)c2)c(=O)n(-c2ccccc2)n1C 11.2 µM [activator, partial curve, poor fit]
COc1cccc(CC(=O)Nc2cc(S(=O)(=O)N3CCOCC3)ccc2N2CCN(C)CC2)c1 12.6 µM [activator, single point]
COc1ccccc1N1CCN(C2CCCN(C(=O)C3=NN(C)C(=O)CC3)C2)CC1 (stereo unspecified) 28.2 µM [activator, single point]
CCN(C(=O)Cc1c(C(=O)O)n(C)c2ccccc12)c1cc(OC)ccc1OC 3.55 µM [activator, single point]
CCOc1ccc(/C=C2\SC(=S)N(CCC(=O)N(CCO)c3ccccc3)C2=O)cc1 1.41 µM [activator, partial curve, poor fit]
COc1cc(F)ccc1CN1CCC(n2nccc2NC(=O)C2CCOC2)CC1 (stereo unspecified) 3.16 µM [activator, single point]
O=C(NCC1CCCO1)c1ccc(-c2cccc(C(F)(F)F)c2)o1 (stereo unspecified) 1.41 µM [activator, partial curve, poor fit]
COC(=O)c1cc2c(cc1[N+](=O)[O-])OCO2 1.78 µM [activator, partial curve, poor fit]
COc1ccc(C(=O)n2nc(C)cc2C)cc1Br 28.2 µM [activator, single point]
COc1cccc(CN2CCN(Cc3ccco3)CC2)c1 2.51 µM [activator, full curve, poor fit]
Cc1ccc(NC(=O)c2cc(-c3ccccc3O)n[nH]2)cc1C 2.24 µM [activator, single point]
COc1ccc(C2CC(=O)C(C=NCCN3CCN(C(=S)Nc4ccccc4)CC3)=C(O)C2)cc1 (stereo unspecified) 28.2 µM [activator, single point]
Cc1cc(C(=O)NNC(=O)CN2C(=O)NC3(CCCCC3)C2=O)c(C)o1 5.01 µM [activator, single point]
Cc1cc(N(C)C)nc(Nc2ccccc2)n1 3.16 µM [activator, partial curve, poor fit]
COc1cccc(C2C(C(=O)c3cc4ccccc4o3)=C(O)C(=O)N2c2cc(C)on2)c1 (stereo unspecified) 5.01 µM [activator, single point]
CCc1ccc(NC(=O)C2C3/C=C\CCCCC32)cc1 (stereo unspecified) 2.82 µM [activator, single point]
COc1ccccc1-c1ccc(SCc2ccc(F)cc2)nn1 2.82 µM [activator, full curve, poor fit]
Cc1[nH]c(=O)[nH]c(=O)c1S(=O)(=O)Nc1ccc(F)c(Cl)c1 1 µM [activator, full curve, poor fit]
COc1ccccc1CNC(=O)C(=O)NCC1CCCN1S(=O)(=O)c1cccs1 (stereo unspecified) 5.62 µM [activator, partial curve, poor fit]
CCCS(=O)(=O)c1nc(S(=O)(=O)c2ccc(C)cc2)c(NCc2ccco2)s1 10 µM [activator, single point]
O=C1O/C(=C/c2ccccc2)N=C1c1ccccc1 5.01 µM [activator, single point]
N#CCCN(C(=O)COc1ccc(Br)cc1F)c1ccc(F)cc1 14.1 µM [activator, partial curve, poor fit]
Cc1cc(C)c2nc(SCC(=O)NNC(=O)c3ccco3)c(C)cc2c1 5.01 µM [activator, single point]
Cc1ccc(NC(=O)CCCC2CCCCC2)c(O)c1 10 µM [activator, partial curve, poor fit]
Cn1c(=O)n(C)c2cc(NC(=O)CSc3ccccc3)ccc21 2.24 µM [activator, single point]
CCc1nnc(NC(=O)CSc2nnc(CNC(=O)c3ccc(OC)c(OC)c3)o2)s1 3.16 µM [activator, partial curve, poor fit]
CC(=O)Nc1ccc2oc(-c3ccccc3)nc2c1 14.1 µM [activator, partial curve, poor fit]
CSc1nnc2c(n1)OC1(Nc3ccccc3-2)C(=O)Nc2ccccc21 (stereo unspecified) 1.78 µM [activator, single point]
COc1ccc(C(=O)Nc2c(C)cc(C)cc2C)cc1OC 3.16 µM [activator, single point]
COc1ccc(/C=N/NC(=O)c2ccc(C)cc2)cc1CN1CCN(c2ccc(F)cc2)CC1 7.08 µM [activator, partial curve]
O=C(CSc1n[nH]c(=O)n1-c1cccnc1)Nc1ccccc1 14.1 µM [activator, single point]
O=C(NC(=S)NCCCN1CCOCC1)c1cccc2ccccc12 12.6 µM [activator, single point]
COc1ccccc1N1CCN(c2ncnc3sc(C(=O)NCC4CCCO4)c(C)c23)CC1 (stereo unspecified) 15.8 µM [activator, single point]
COc1ccc(C)cc1Nc1nc(N)c2ccccc2n1 31.6 µM [activator, partial curve, poor fit]
Cc1cccc(NC(=S)N(Cc2ccco2)C(C)c2cccs2)c1 (stereo unspecified) 1.41 µM [activator, partial curve, poor fit]
CCOc1cc(N2CCOCC2)c(OCC)cc1NC(=O)C1CC(=O)N(c2ccc(C)cc2)C1 (stereo unspecified) 5.01 µM [activator, single point]
COc1ccccc1N1CCN(CC(=O)NCc2ccc(Cl)cc2)CC1 4.47 µM [activator, single point]
COC(=O)c1ccc(COc2c(F)c(F)cc(F)c2F)o1 0.355 µM [activator, full curve, poor fit]
COC(=O)CC1C(=O)NCCN1C(=S)NC(=O)C(c1ccccc1)c1ccccc1 (stereo unspecified) 5.01 µM [activator, single point]
COc1ccc2c(c1)c1c(n2C(C)=O)C(OC(C)=O)=NCC1 5.01 µM [activator, partial curve, poor fit]
N#Cc1ccc(NC(=O)CN2CCN(c3ccccn3)CC2)cc1 22.4 µM [activator, single point]
COC(=O)[C@@H](NC(=O)c1ccccc1OC1CCN(S(C)(=O)=O)CC1)C(C)C 11.2 µM [activator, partial curve, poor fit]
CC(=O)NC(CC(=O)NNC(=O)c1cccs1)c1ccccc1 (stereo unspecified) 28.2 µM [activator, single point]
CC1CN(C2=Nc3cccc4cccc2c34)CC(C)O1 (stereo unspecified) 0.794 µM [activator, single point]
O=C(Nc1cccc(S(=O)(=O)NC2=NCCCCC2)c1)C1COc2ccccc2O1 (stereo unspecified) 1 µM [activator, full curve, poor fit]
CCN=c1sc(C(=O)Nc2ccccc2)c(C)n1CC 8.91 µM [activator, partial curve, poor fit]
CC1=NN(c2nc(-c3ccc(C)cc3)cs2)C(=O)C1N=Nc1cccc(O)c1 (stereo unspecified) 3.55 µM [activator, single point]

Potency, inactive:
COc1ccc(-c2cc(C3CC3)nc3sc(C#N)c(N)c23)cc1
CC(C)c1nc(C#N)c(NN)o1
O=C(c1cccs1)c1no[n+]([O-])c1C(=O)c1cccs1
COc1ccc(-n2nc([N+](=O)[O-])c(=NCc3ccc4c(c3)OCO4)n2O)cc1
Cc1ccc(-n2nc3c(SCCN4CCOCC4)nnc(C)c3c2C)cc1
O=C(CCN1CCCCC1)c1ccccc1
CCn1c2ccccc2c2cc(NS(=O)(=O)c3ccc(C)cc3)ccc21
COc1cc(C(=O)Nc2cccc(-c3nc4cc(C)ccc4o3)c2C)cc(OC)c1OC
COc1c2occc2c(OC(C)=O)c2c(=O)cc(C)oc12
CCOC(=O)/C=C1/SCC(=O)N1CC(=O)Nc1ccccc1OC(F)F
O=C(CCN1C(=O)NC2(CCCC2)C1=O)Nc1ccc(Sc2ccc(Br)cc2)cc1
CN1CCN(c2ccccc2NC(=O)c2ccc(-c3ccccc3)cc2)CC1
CC(=O)Nc1ccc(Oc2sc(C(=O)c3ccccc3)c(N)c2C#N)cc1
CCN(Cc1cc2cc(OC)ccc2[nH]c1=O)C(=O)Cc1ccc(OC)cc1
CSc1nc2n(n1)C(c1ccccn1)C1=C(CC(C)(C)CC1=O)N2 (stereo unspecified)
Cc1ccc(-n2sc3cc(F)ccc3c2=O)c(C)c1

As a short view, some entries already given.
Potency, inactive:
COc1ccc(-n2nc([N+](=O)[O-])c(=NCc3ccc4c(c3)OCO4)n2O)cc1
Cc1ccc(-n2nc3c(SCCN4CCOCC4)nnc(C)c3c2C)cc1
O=C(CCN1CCCCC1)c1ccccc1
CCn1c2ccccc2c2cc(NS(=O)(=O)c3ccc(C)cc3)ccc21
COc1cc(C(=O)Nc2cccc(-c3nc4cc(C)ccc4o3)c2C)cc(OC)c1OC
COc1c2occc2c(OC(C)=O)c2c(=O)cc(C)oc12

Part of the list above in order of formula weight, low to high.
Potency, inactive:
O=C(c1cccs1)c1no[n+]([O-])c1C(=O)c1cccs1
COc1ccc(-c2cc(C3CC3)nc3sc(C#N)c(N)c23)cc1
CSc1nc2n(n1)C(c1ccccn1)C1=C(CC(C)(C)CC1=O)N2 (stereo unspecified)

Next part.

activation, inconclusive:
O=C(NCCc1ccccc1)C1CC(=O)N(C2CCCCC2)C1 (stereo unspecified) 23.2% [activator]
